Laboratory results published in PubChem BioAssay AID246 (DTP/NCI, 2004).
The list shows only some results of the screen, not a fair sample: it gathers tests that were run many times, whatever their T/C, doses with no T/C, and many T/C values between a quarter and a half above the control. Other doses and runs of a compound stand elsewhere. T/C is the treated group as % of the vehicle group. Some entries give survivors of the animals treated and no T/C: the source files T/C as zero there, which appears to mark a toxic dose or a test without result, not a measured value. Some survivor counts are full or nearly so, which does not show that the dose was tolerated: the source hardly ever lists a survival T/C far under the control, and the zero likely stands for such cases as well. Survivors were counted at the toxicity check, usually on the fifth day, unless a day is given; later deaths do not show. Schedule codes are those of the source, taken here to give the interval after Q, in days (D) or hours (H), and the number of doses after X. Some entries were tested several times; their values stand side by side, smallest first. Some schedule codes hold Z or #, which are not explained here. For survival time, this PubChem deposit counts one and a half times the control or more as active, and values a quarter to a half above the control carry no call in these data; other NCI protocols may use other cut-offs. Some T/C values carry the count of animals alive at the toxicity check (mostly the fifth day); without a count, all were alive then.

System: BDF1 mice, P1081 chloroleukemia ip, survival T/C
Test: NCI In Vivo Anticancer Drug Screen. Data for tumor model P1081 Chloroleukemia (intraperitoneal) in B6D2F1 (BDF1) mice
Conditions: T/C endpoint: mean survival time, higher T/C = longer survival
Protocol: The antitumor activity of compounds was measured in mice bearing transplantable tumors. Survival or tumor size were measured and the results are expressed as the measurement made in the treated group (T) divided by the measurement made in the vehicle treated control group (C). The tumor model used in this assay is P1081 Chloroleukemia (intraperitoneal) in B6D2F1 (BDF1) mice

[1] = dose: 2.0 mg/kg/injection, schedule: Q01DX010 (ip), vehicle: saline
[2] = dose: 120.0 mg/kg/injection, schedule: Q01DX Z (ip), vehicle: carboxymethylcellulose (CMC)
[3] = dose: 12.5 mg/kg/injection, schedule: Q01DX Z (ip), vehicle: carboxymethylcellulose (CMC)
[4] = dose: 120.0 mg/kg/injection, schedule: Q01DX010 (ip), vehicle: saline
[5] = dose: 125.0 mg/kg/injection, schedule: Q01DX Z (ip), vehicle: carboxymethylcellulose (CMC)
[6] = dose: 50.0 mg/kg/injection, schedule: Q01DX Z (ip), vehicle: saline
[7] = dose: 500.0 mg/kg/injection, schedule: Q01DX Z (ip), vehicle: carboxymethylcellulose (CMC)
[8] = dose: 62.5 mg/kg/injection, schedule: Q01DX Z (ip), vehicle: carboxymethylcellulose (CMC)
[9] = dose: 5.0 mg/kg/injection, schedule: Q01DX010 (ip), vehicle: saline
[10] = dose: 100.0 mg/kg/injection, schedule: Q01DX Z (ip), vehicle: saline

`C=CC(CN1CC1)OC(C)=O` (centres undefined) was tested, and the T/C [1] was 135 % of control, the survivor count (dose: 7.5 mg/kg/injection, schedule: Q01DX Z (ip), vehicle: carboxymethylcellulose (CMC)) was 6 of 6 and the survivor count (dose: 15.0 mg/kg/injection, schedule: Q01DX Z (ip), vehicle: carboxymethylcellulose (CMC)) was 2 of 6.
In the case of `[I][Hg][CH2]C1COC([CH2][Hg][I])CO1` (centres undefined), the T/C (dose: 3.13 mg/kg/injection, schedule: Q01DX010 (ip), vehicle: saline) is reported as 130 % of control, the T/C (dose: 60.0 mg/kg/injection, schedule: Q01DX Z (ip), vehicle: carboxymethylcellulose (CMC)) is reported as 139 % of control and the T/C [2] is reported as 131 % of control. For the same compound, the survivor count [2] was 0 of 6, the survivor count (dose: 240.0 mg/kg/injection, schedule: Q01DX Z (ip), vehicle: carboxymethylcellulose (CMC)) was 0 of 6 and the survivor count (dose: 480.0 mg/kg/injection, schedule: Q01DX Z (ip), vehicle: carboxymethylcellulose (CMC)) was 0 of 6.
For `N#CCSc1ncnc2nc[nH]c12`, the T/C [3] was 140 % of control, the T/C (dose: 15.0 mg/kg/injection, schedule: Q01DX010 (ip), vehicle: saline) was 130 % of control and the T/C (dose: 60.0 mg/kg/injection, schedule: Q01DX010 (ip), vehicle: saline) was 145 % of control. The survivor count (dose: 100.0 mg/kg/injection, schedule: Q01DX Z (ip), vehicle: carboxymethylcellulose (CMC)) was 3 of 6, the T/C [4] was 140 % of control and the survivor count [4] was 5 of 6. The survivor count (dose: 200.0 mg/kg/injection, schedule: Q01DX Z (ip), vehicle: carboxymethylcellulose (CMC)) was 0 of 6.
With `CCCCNc1ncnc2c1cnn2C` the survivor count [5] was 5 of 6 and the survivor count (dose: 250.0 mg/kg/injection, schedule: Q01DX010 (ip), vehicle: saline) was 2 of 6.
`O=C(Nc1ccc(C2=NCCCN2)cc1)c1ccc(NC(=O)c2ccc(C3=NCCCN3)cc2)cc1` was tested, and the T/C (dose: 7.8 mg/kg/injection, schedule: Q01DX Z (ip), vehicle: carboxymethylcellulose (CMC)) was 136 % of control.
In the case of `CS(=O)(=O)OCCCCOS(C)(=O)=O`, the survivor count (dose: 0.19 mg/kg/injection, schedule: Q01DX Z (ip), vehicle: methylcellulose (MC)) is reported as 6 of 6, the survivor count (dose: 3.12 mg/kg/injection, schedule: Q01DX Z (ip), vehicle: methylcellulose (MC)) is reported as 6 of 6 and the survivor count (dose: 6.25 mg/kg/injection, schedule: Q01DX010 (ip), vehicle: saline) is reported as 6 of 6. For the same compound, the survivor count (dose: 12.5 mg/kg/injection, schedule: Q01DX Z (ip), vehicle: methylcellulose (MC)) was 6 of 6 and the survivor count (dose: 100.0 mg/kg/injection, schedule: Q01DX Z (ip), vehicle: methylcellulose (MC)) was 5 of 6.
`Cn1cc(NC(=O)c2cc(NC(=O)CN=C(N)N)cn2C)cc1C(=O)NCCC(=N)N` was tested, and the survivor count [6] was 2 of 6.
In the case of `Clc1ncnc2nc[nH]c12`, the survivor count [7] is reported as 0 of 6.
With `Cc1cc2nc3c(=O)[nH]c(=O)nc-3n(CC(O)C(O)C(O)C(O)CO)c2cc1C` (centres undefined) the survivor count (dose: 400.0 mg/kg/injection, schedule: Q01DX010 (ip), vehicle: saline) was 7 of 7.
In the case of `COc1cc2c(c(OC)c1OC)-c1ccc(N)c(=O)cc1[C@@H](NC(C)=O)CC2`, the T/C [1] is reported as 140 % of control, the survivor count (dose: 4.0 mg/kg/injection, schedule: Q01DX010 (ip), vehicle: saline) is reported as 6 of 7 and 6 of 6 and the survivor count (dose: 8.0 mg/kg/injection, schedule: Q01DX010 (ip), vehicle: saline) is reported as 6 of 6.
For `OCC1OC(n2cnc3c(=S)nc[nH]c32)C(O)C1O` (centres undefined), the T/C [8] was 133 % of control, the T/C [5] was 133 % of control and the T/C (dose: 160.0 mg/kg/injection, schedule: Q01DX010 (ip), vehicle: saline) was 125 % of control [5 of 6 alive]. The T/C (dose: 250.0 mg/kg/injection, schedule: Q01DX Z (ip), vehicle: carboxymethylcellulose (CMC)) was 133 % of control [5 of 6 alive] and the survivor count [7] was 6 of 6.
`S=P(N1CCOCC1)(N1CC1)N1CC1` was tested, and the survivor count [3] was 3 of 6, the survivor count (dose: 25.0 mg/kg/injection, schedule: Q01DX Z (ip), vehicle: carboxymethylcellulose (CMC)) was 5 of 6 and the survivor count (dose: 50.0 mg/kg/injection, schedule: Q01DX Z (ip), vehicle: carboxymethylcellulose (CMC)) was 0 of 6.
With `N#[N+]c1cnc([O-])[nH]c1=O` the T/C [9] was 138 % of control and the survivor count (dose: 20.0 mg/kg/injection, schedule: Q01DX010 (ip), vehicle: saline) was 1 of 6.
For `OCC1OC(n2cnc3c(Cl)ncnc32)C(O)C1O` (centres undefined), the survivor count (dose: 62.5 mg/kg/injection, schedule: Q01DX010 (ip), vehicle: saline) was 6 of 6 and the survivor count [5] was 4 of 6.
With `O=c1[nH]cc(F)c(=O)[nH]1` the T/C [9] was 127 and 130 % of control, the T/C (dose: 6.25 mg/kg/injection, schedule: Q01DX Z (ip), vehicle: saline) was 135 % of control and the survivor count [10] was 6 of 6.
For `N#Cc1cn(C2OC(CO)C(O)C2O)c2ncnc(N)c12` (centres undefined), the T/C (dose: 0.12 mg/kg/injection, schedule: Q01DX Z (ip), vehicle: carboxymethylcellulose (CMC)) was 128 % of control, the survivor count (dose: 0.25 mg/kg/injection, schedule: Q01DX Z (ip), vehicle: carboxymethylcellulose (CMC)) was 5 of 6 and the survivor count (dose: 0.5 mg/kg/injection, schedule: Q01DX Z (ip), vehicle: carboxymethylcellulose (CMC)) was 6 of 6. The survivor count (dose: 1.0 mg/kg/injection, schedule: Q01DX Z (ip), vehicle: carboxymethylcellulose (CMC)) was 5 of 6.
In the case of `Cn1cnc([N+](=O)[O-])c1Sc1nc(N)nc2nc[nH]c12`, the T/C (dose: 4.0 mg/kg/injection, schedule: Q01DX Z (ip), vehicle: carboxymethylcellulose (CMC)) is reported as 140 and 142 % of control, the survivor count (dose: 16.0 mg/kg/injection, schedule: Q01DX Z (ip), vehicle: carboxymethylcellulose (CMC)) is reported as 6 of 6 and the survivor count (dose: 32.0 mg/kg/injection, schedule: Q01DX Z (ip), vehicle: carboxymethylcellulose (CMC)) is reported as 6 of 6.
`O=c1[nH]c(=O)n(C2CC(O)C(CO)O2)cc1I` (centres undefined) was tested, and the survivor count [8] was 6 of 6 and the T/C [5] was 126 % of control.
In the case of `S=P(N1CC1)(N1CC1)N1CC1`, the T/C (dose: 3.0 mg/kg/injection, schedule: Q01DX Z (ip), vehicle: saline) is reported as 128 % of control.
In the case of `CC1CCOS(=O)O1` (centres undefined), the survivor count (dose: 1.25 mg/kg/injection, schedule: Q01DX Z (ip), vehicle: carboxymethylcellulose (CMC)) is reported as 6 of 6, the survivor count (dose: 10.0 mg/kg/injection, schedule: Q01DX Z (ip), vehicle: carboxymethylcellulose (CMC)) is reported as 6 of 6 and the survivor count (dose: 20.0 mg/kg/injection, schedule: Q01DX Z (ip), vehicle: carboxymethylcellulose (CMC)) is reported as 6 of 6. The survivor count (dose: 40.0 mg/kg/injection, schedule: Q01DX Z (ip), vehicle: carboxymethylcellulose (CMC)) was 6 of 6, the survivor count (dose: 80.0 mg/kg/injection, schedule: Q01DX010 (ip), vehicle: saline) was 6 of 6 and the survivor count (dose: 80.0 mg/kg/injection, schedule: Q01DX Z (ip), vehicle: carboxymethylcellulose (CMC)) was 6 of 6.
In the case of `O=P1(N(CCCl)CCCl)NCCCO1` (centres undefined), the T/C (dose: 12.5 mg/kg/injection, schedule: Q01DX Z (ip), vehicle: saline) is reported as 101, 106, 121, 142 % of control, the T/C (dose: 25.0 mg/kg/injection, schedule: Q01DX Z (ip), vehicle: saline) is reported as 124, 135, 156, 172 % of control and the T/C (dose: 45.0 mg/kg/injection, schedule: Q01DX010 (ip), vehicle: saline) is reported as 128 % of control. The T/C [6] was 105, 115, 120, 173 % of control, the survivor count (dose: 90.0 mg/kg/injection, schedule: Q01DX010 (ip), vehicle: saline) was 6 of 6 and the survivor count [10] was 6 of 6. The survivor count (dose: 180.0 mg/kg/injection, schedule: Q01DX010 (ip), vehicle: saline) was 6 of 6 and the survivor count (dose: 200.0 mg/kg/injection, schedule: Q01DX Z (ip), vehicle: saline) was 0 of 6.
